{
  "sequences": {"note": "Sequences of proteins named here, by UniProt entry; tags and fusion partners are left off. A change or cut given only in a name is not applied to a line headed by its entry.", "UniProt P58753": "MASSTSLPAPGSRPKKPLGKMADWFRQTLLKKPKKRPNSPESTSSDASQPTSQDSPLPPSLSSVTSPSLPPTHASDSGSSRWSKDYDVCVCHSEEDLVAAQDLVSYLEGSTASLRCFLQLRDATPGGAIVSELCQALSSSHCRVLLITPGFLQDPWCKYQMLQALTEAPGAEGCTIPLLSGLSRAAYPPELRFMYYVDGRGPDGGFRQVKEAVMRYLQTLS"},
  "source": "paper PMC4760121",
  "molecules": {"B1": {"name": "interferon gamma receptor (IFNGR1), endogenous in HEK293 cells (receptor, UniProt P15260 18-489)", "chain": "EMGTADLGPSSVPTPTNVTIESYNMNPIVYWEYQIMPQVPVFTVEVKNYGVKNSEWIDACINISHHYCNISDHVGDPSNSLWVRVKARVGQKESAYAKSEEFAVCRDGKIGPPKLDIRKEEKQIMIDIFHPSVFVNGDEQEVDYDPETTCYIRVYNVYVRMNGSEIQYKILTQKEDDCDEIQCQLAIPVSSLNSQYCVSAEGVLHVWGVTTEKSKEVCITIFNSSIKGSLWIPVVAALLLFLVLSLVFICFYIKKINPLKEKSIILPKSLISVVRSATLETKPESKYVSLITSYQPFSLEKEVVCEEPLSPATVPGMHTEDNPGKVEHTEELSSITEVVTTEENIPDVVPGSHLTPIERESSSPLSSNQSEPGSIALNSYHSRNCSESDHSRNGFDTDSSCLESHSSLSDSEFPPNNKGEIKTEGQELITVIKAPTSFGYDKPHVLVDLLVDDSGKESLIGYRPTEDSKEFS"}},
  "key": {"[1]": {"biological_target": "T1, interferon gamma receptor (IFNGR1), endogenous in HEK293 cells (human (endogenous in HEK293)) (UniProt P15260)", "T1 sequence": "B1 chain", "test": "co-IP; HEK293 cells transfected with HA-tagged Mal constructs; precleared lysates incubated at 4°C for at least 2 hr with antibodies to HA or to the interferon gamma receptor (IFNGR1) or control rabbit IgG and protein G beads; Western blot"}, "[2]": {"biological_target": "HA-tagged Mal (MyD88 adaptor-like, encoded by TIRAP), wild type (human) (UniProt P58753)", "test": "co-IP; HEK293 cells transfected with HA-tagged Mal constructs; precleared lysates incubated at 4°C for at least 2 hr with antibodies to HA or to the interferon gamma receptor (IFNGR1) or control rabbit IgG and protein G beads; Western blot"}},
  "note": "No constants are given. Whether binding was seen depends on the method and setting. Binding seen in cells or lysates may run through a third protein. Some results given as binding are weak or reduced against the parent protein; the word gives no strength.",
  "data": [
    {"molecule": "HA-tagged S180L variant Mal (from UniProt P58753 1-221)", "values": [
      {"measurement": "binding", "setting": "[1]", "result": "binds"}
    ]},
    {"molecule": "HA-tagged Mal (MyD88 adaptor-like, encoded by TIRAP), wild type (from UniProt P58753 1-221)", "values": [
      {"measurement": "binding", "setting": "[1]", "result": "binds"}
    ]},
    {"molecule": "Mal mutant construct consisting solely of the TIR domain (from UniProt P58753 84-213) (domain or fragment)", "values": [
      {"measurement": "binding", "setting": "[1]", "result": "no binding"}
    ]},
    {"molecule": "B1", "values": [
      {"measurement": "binding", "setting": "[2]", "result": "binds"}
    ]}
  ]
}
